Assay results from PubChem BioAssay AID651803 (National Center for Advancing Translational Sciences (NCATS), 2012).
Out of some 1,200 compounds screened, fewer than 10 were called active. Calls come from the whole dose curve; as a rule, active = well fitted curve in the direction sought with a large enough effect; inconclusive = small, poorly fitted or top-dose-only effect, or another doubt; inactive = no such curve, though single readings can be large or run the other way. The list shows a part of the results.

Amino acid sequences for entries named in this document (tags omitted). A change or cut given only in a name is not applied to a line headed by its entry.
UniProt P11308: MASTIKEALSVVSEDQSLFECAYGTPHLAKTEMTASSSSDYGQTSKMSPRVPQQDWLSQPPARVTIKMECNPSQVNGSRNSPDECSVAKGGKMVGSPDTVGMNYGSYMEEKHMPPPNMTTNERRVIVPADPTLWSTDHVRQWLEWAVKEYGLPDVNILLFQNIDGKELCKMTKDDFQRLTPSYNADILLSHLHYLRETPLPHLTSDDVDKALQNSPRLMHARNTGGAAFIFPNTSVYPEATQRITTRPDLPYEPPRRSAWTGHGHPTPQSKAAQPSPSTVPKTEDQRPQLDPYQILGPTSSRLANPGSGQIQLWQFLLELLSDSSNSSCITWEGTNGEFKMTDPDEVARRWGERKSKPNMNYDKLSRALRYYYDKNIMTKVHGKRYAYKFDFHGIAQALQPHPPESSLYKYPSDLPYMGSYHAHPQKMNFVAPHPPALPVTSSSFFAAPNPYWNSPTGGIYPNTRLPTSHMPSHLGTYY

target: Transcriptional regulator ERG (Homo sapiens) (UniProt P11308); assay: qHTS for Small Molecule Inhibitors of the ERG Ets/DNA interaction: TR assay against cherry picks; conditions: ERG Ets domain-DNA fluorescence polarization, Texas red probe; at 154 µM (top of the series); note: % of control where 0% means no effect
Method in brief: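 Polarization read sequentially for fluorescein (ex 480/em 535 nm) and Texas red (ex 555/em 632 nm) probes, 5 nM and 100 nM solutions, displaced from His-ERG Ets domain (1 uM solution), pH 7.5 Tris/KCl/EDTA/DTT buffer.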

Activity change, negative = inhibition, inactive:
CC(=O)c1ccc(OCc2ccc(Oc3c(Cl)cccc3[N+](=O)[O-])cc2)cc1 0.0583%
CCOC(=O)c1c(C)n(CCOc2ccccc2)c2ccc(O)cc12 3.37%
CC(C)OCCCNC(=O)C1CCC(CNS(=O)(=O)c2ccccc2)CC1 (stereo not drawn) 1.24%
COC(=O)c1cc(-c2ccc(Cl)cc2)n(-c2ccc(S(N)(=O)=O)cc2)n1 2.99%
CC(C)Cn1c(SCC(=O)NCc2ccc(Cl)cc2)nnc1-c1cccc(S(=O)(=O)N2CCOCC2)c1 -11.2%
N#CC1=C(N)Oc2c(ccc3cccnc23)C1c1cccnc1 (stereo not drawn) 0.537%
CCc1ccccc1NC(=O)c1nnn(-c2ccc(F)cc2)c1C -15.7%
Cc1cc(C)c(NC(=O)Cn2c(=O)n(CCC(=O)N3CCc4ccccc4C3)c(=O)c3ccccc32)c(C)c1 -25.3%
O=C(/C=C/c1cccs1)N1CCN(Cc2ccc3c(c2)OCO3)CC1 9.52%
CC1Cc2ccccc2N1CC(=O)Nc1ccc2c(c1)OCO2 (stereo not drawn) -2.39%
CC(C)CN1CCc2nc(Nc3ccc(F)cc3F)ncc2C1 -4.49%
COc1cc(NC(=O)c2noc(C)c2[N+](=O)[O-])c(OC)cc1Cl -10.2%
NC(=NCCCCCCN=C(N)/N=C(\N)Nc1ccc(Cl)cc1)/N=C(\N)Nc1ccc(Cl)cc1 -2.89%
Cc1cc(Br)ccc1NC(=O)CN(C)C(=O)COc1cccc2c1OC(C)(C)C2 -1.51%
CCOc1ccccc1N(C)S(=O)(=O)c1ccc2[nH]cc(C(=O)N(CCOC)CCOC)c(=O)c2c1 -11%
O=C(c1ccccc1)c1ccc[nH]1 -4.34%
CCCN(CCC)Cc1c(C(=O)N/N=C/c2cccs2)nnn1-c1nonc1N 1.84%
CC12CCC(=O)N1C(C(=O)NCCN1C(=O)S/C(=C\c3ccccc3Cl)C1=O)CS2 (stereo not drawn) 0.927%
CCOC(=O)c1c(NC(=O)CN2C(=O)NC3(CCC(C)CC3)C2=O)sc(C)c1-c1ccc(C)cc1 (stereo not drawn) 4.55%
CCOc1ccc(N(CC(=O)NCCc2ccc(Cl)cc2)S(=O)(=O)c2c(C)[nH]c(=O)[nH]c2=O)cc1 -12.2%
CC1(C)C(=O)NCCN1C(=O)c1ccc2nc(Cc3ccccc3F)oc2c1 -2.67%
COc1ccc(-n2nc(C(=O)NCC(=O)Nc3cc(OC)ccc3OC)c3ccccc3c2=O)cc1 20.2%
COc1ccc(-c2nn3c(=O)cc(CN4CCN(C(=O)/C=C/c5ccccc5)CC4)nc3s2)cc1 -22%

Part of the list above in order of formula weight, smallest number first.
Activity change, negative = inhibition, inactive:
CC1Cc2ccccc2N1CC(=O)Nc1ccc2c(c1)OCO2 (stereo not drawn) -2.39%
CC(C)OCCCNC(=O)C1CCC(CNS(=O)(=O)c2ccccc2)CC1 (stereo not drawn) 1.24%
CC(=O)c1ccc(OCc2ccc(Oc3c(Cl)cccc3[N+](=O)[O-])cc2)cc1 0.0583%
